Experiment [1] has as its target Parkin in 293 T cells (human (endogenous in 293 T)) (UniProt O60260). Briefly: co-IP; NEDD8 and Parkin from 293 T cells and murine Tregs, either over-expressing NEDD8 (OE-NEDD8) or treated with MLN4924 (3 uM); western blot of whole-cell lysates and immunoprecipitates. (In general: A western blot detects proteins with antibodies after separation by electrophoresis.)
In experiment [2] the target is T1, Parkin in murine Tregs (mouse (endogenous in murine Tregs)) (UniProt Q9WVS6).
T1 sequence: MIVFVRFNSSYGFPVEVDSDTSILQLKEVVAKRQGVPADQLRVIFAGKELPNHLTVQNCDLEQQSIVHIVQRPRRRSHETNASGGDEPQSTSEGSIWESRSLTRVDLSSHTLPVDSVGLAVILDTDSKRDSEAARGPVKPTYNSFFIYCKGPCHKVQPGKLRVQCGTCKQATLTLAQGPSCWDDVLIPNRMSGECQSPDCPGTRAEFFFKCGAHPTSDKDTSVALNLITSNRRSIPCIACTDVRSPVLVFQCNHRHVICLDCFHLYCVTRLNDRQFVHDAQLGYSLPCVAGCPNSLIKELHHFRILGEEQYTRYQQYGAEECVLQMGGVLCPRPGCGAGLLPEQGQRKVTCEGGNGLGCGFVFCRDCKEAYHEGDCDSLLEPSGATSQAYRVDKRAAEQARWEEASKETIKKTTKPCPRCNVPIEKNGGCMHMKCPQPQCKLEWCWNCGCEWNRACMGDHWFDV
The experiment is described as above.

Chains of the proteins cited; added tags and fusions are not shown. Residues count along the entry.
UniProt O60260: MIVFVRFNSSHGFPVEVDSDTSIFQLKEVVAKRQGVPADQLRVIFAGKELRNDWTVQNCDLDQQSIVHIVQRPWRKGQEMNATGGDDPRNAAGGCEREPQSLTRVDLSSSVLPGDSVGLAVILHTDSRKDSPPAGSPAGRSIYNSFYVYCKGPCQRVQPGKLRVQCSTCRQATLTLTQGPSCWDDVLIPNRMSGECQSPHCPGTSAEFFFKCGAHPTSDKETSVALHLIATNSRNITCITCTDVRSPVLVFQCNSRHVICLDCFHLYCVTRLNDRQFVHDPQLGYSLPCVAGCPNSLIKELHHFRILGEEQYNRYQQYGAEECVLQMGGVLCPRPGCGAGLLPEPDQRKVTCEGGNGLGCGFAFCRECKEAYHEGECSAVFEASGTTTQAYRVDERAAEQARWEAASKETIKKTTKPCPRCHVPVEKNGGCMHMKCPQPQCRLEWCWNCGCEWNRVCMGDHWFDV
UniProt Q15843, residues 1-76: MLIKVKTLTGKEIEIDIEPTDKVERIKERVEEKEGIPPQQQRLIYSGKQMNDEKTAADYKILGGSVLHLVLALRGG
UniProt P29595, residues 1-76: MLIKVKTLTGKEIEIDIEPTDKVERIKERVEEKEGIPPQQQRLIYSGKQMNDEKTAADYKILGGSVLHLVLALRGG

Results are given in words; binding and its absence hold for the method and conditions named. In cells and extracts the contact can be indirect. Some entries that bind do so weakly or less than the wild type.

Take “NEDD8 in 293 T cells (from UniProt Q15843 1-76)”: the binding result in experiment [1] is listed as “binds”.
Regarding “NEDD8 in murine Tregs (from UniProt P29595 1-76)”, in experiment [2], the binding result was “binds”.

Source of the values: paper PMC10767093.
